The other results are listed elsewhere or left out.
compound: c1cn2cc(-c3ccc4cn[nH]c4c3)nc(Nc3ccc(N4CCOCC4)cc3)c2n1 [entospletinib]; experiment: log2 fold change, soluble protein after heating vs DMSO (PISA); higher = thermal stabilisation; K562 cells, 10 uM, 30 min; active = over 0.2 and 3.5 SD of the protein, either way, in both replicates (recomputed)
Method in brief: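 K562 cells (2×10^6 cells/mL) were treated with 10 μM compound for 30 min, and aliquots were heated for 3 min over 48°C-58°C. Pooled aliquots were extracted in PBS with 0.5% NP-40 at 4°C, and the supernatant after 21,000xg for 90 min was measured by TMTpro 16plex LC-MS/MS with channel sums equalised. Reported thermal stability, relative to control samples and from duplicates, is a log2 fold change.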

Sequences of proteins named here, by UniProt entry; tags and fusion partners are left off. A change or cut given only in a name is not applied to a line headed by its entry.
UniProt P41250: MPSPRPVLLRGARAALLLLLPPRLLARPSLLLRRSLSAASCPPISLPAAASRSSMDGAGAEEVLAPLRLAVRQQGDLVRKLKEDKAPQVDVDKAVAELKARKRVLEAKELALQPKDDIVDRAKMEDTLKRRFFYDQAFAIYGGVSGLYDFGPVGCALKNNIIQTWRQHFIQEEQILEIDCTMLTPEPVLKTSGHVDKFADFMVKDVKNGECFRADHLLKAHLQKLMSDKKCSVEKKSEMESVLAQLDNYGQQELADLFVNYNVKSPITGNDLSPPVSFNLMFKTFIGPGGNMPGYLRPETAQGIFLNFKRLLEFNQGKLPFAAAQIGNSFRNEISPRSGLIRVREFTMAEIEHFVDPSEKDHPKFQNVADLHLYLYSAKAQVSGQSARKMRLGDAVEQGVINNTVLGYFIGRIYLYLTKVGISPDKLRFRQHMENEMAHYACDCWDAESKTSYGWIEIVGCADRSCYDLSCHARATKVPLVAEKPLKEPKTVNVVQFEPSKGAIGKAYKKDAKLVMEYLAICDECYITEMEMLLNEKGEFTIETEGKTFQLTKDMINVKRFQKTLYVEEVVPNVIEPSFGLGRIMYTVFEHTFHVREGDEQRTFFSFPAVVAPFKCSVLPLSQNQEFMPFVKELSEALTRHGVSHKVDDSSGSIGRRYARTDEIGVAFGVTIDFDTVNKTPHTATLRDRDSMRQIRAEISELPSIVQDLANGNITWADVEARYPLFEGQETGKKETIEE
UniProt Q9UET6: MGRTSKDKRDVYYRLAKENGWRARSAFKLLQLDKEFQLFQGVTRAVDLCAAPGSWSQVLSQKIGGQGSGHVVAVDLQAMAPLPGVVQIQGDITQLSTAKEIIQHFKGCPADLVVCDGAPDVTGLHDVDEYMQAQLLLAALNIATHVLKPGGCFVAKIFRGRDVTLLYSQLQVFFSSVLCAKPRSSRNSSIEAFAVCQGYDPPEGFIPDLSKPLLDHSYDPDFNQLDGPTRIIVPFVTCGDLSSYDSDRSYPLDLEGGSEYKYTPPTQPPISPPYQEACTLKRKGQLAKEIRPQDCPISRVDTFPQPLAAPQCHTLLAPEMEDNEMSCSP
UniProt P48506: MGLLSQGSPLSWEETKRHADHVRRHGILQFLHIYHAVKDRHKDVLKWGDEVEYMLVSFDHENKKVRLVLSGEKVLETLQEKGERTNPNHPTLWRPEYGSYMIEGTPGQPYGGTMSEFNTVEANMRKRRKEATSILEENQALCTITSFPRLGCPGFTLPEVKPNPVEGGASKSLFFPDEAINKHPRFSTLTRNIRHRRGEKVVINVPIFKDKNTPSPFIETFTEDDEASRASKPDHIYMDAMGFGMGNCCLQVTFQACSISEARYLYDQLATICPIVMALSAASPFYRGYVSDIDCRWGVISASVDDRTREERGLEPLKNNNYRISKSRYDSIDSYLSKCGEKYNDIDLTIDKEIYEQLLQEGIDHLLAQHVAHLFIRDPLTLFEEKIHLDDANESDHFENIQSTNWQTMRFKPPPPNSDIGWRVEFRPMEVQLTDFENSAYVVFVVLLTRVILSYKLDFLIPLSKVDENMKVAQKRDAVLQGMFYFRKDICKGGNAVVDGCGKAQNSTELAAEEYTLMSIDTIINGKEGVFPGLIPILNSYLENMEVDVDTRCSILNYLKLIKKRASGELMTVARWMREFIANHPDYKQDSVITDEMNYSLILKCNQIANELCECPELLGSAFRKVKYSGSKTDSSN
UniProt Q9NY12: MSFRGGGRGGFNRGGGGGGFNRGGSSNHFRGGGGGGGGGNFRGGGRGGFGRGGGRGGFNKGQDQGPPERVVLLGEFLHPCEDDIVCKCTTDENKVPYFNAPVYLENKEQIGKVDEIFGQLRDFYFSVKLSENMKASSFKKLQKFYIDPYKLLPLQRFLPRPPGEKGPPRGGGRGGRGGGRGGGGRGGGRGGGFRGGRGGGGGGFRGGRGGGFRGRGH
UniProt P36268: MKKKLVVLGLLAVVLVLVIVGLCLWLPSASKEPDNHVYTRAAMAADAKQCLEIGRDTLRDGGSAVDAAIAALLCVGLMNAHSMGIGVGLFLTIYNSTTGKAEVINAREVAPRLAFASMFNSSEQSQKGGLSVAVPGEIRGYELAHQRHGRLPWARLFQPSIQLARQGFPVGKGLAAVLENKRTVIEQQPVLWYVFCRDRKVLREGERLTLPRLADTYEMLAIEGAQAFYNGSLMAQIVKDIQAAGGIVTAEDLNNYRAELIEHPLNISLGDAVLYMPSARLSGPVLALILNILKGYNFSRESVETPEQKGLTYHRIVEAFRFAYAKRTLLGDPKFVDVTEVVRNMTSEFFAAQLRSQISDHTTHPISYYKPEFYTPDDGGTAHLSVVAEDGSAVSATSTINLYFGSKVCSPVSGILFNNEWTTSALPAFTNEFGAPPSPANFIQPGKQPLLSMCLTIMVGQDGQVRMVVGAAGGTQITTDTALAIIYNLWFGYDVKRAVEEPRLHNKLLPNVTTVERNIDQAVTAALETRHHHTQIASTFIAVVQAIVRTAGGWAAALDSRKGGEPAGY
UniProt Q13069: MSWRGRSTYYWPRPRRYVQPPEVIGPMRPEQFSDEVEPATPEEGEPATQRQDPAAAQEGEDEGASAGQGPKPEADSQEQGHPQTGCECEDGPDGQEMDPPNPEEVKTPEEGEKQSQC
UniProt Q9BZ67: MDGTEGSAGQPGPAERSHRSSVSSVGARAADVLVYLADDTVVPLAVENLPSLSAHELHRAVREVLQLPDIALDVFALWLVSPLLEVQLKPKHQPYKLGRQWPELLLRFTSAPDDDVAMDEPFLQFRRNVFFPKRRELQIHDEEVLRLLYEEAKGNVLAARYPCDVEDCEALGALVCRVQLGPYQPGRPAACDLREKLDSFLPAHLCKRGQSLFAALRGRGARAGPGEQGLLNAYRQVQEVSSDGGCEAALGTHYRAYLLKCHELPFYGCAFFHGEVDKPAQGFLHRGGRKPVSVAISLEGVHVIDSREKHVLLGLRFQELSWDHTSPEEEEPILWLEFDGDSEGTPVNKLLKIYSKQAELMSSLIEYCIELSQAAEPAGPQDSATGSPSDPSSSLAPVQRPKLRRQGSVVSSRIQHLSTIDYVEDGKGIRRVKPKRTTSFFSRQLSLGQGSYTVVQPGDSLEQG
UniProt Q86YP4: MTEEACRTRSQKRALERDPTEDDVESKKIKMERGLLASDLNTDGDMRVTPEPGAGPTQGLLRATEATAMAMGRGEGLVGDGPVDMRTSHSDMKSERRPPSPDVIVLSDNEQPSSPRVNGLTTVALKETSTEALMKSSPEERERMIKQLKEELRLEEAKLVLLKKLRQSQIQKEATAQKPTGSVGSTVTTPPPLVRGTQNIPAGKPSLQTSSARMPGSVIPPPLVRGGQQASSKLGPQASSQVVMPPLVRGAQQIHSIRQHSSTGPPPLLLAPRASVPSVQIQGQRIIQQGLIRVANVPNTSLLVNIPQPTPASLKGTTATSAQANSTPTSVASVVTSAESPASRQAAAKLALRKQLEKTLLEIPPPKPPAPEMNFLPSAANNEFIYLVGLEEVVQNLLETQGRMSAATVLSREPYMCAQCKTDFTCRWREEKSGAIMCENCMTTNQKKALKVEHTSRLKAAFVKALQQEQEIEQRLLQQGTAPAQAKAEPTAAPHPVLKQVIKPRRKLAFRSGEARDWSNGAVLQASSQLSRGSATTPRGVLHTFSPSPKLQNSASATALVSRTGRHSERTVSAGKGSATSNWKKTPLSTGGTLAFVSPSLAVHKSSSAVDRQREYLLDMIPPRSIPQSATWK
UniProt Q9BQS8: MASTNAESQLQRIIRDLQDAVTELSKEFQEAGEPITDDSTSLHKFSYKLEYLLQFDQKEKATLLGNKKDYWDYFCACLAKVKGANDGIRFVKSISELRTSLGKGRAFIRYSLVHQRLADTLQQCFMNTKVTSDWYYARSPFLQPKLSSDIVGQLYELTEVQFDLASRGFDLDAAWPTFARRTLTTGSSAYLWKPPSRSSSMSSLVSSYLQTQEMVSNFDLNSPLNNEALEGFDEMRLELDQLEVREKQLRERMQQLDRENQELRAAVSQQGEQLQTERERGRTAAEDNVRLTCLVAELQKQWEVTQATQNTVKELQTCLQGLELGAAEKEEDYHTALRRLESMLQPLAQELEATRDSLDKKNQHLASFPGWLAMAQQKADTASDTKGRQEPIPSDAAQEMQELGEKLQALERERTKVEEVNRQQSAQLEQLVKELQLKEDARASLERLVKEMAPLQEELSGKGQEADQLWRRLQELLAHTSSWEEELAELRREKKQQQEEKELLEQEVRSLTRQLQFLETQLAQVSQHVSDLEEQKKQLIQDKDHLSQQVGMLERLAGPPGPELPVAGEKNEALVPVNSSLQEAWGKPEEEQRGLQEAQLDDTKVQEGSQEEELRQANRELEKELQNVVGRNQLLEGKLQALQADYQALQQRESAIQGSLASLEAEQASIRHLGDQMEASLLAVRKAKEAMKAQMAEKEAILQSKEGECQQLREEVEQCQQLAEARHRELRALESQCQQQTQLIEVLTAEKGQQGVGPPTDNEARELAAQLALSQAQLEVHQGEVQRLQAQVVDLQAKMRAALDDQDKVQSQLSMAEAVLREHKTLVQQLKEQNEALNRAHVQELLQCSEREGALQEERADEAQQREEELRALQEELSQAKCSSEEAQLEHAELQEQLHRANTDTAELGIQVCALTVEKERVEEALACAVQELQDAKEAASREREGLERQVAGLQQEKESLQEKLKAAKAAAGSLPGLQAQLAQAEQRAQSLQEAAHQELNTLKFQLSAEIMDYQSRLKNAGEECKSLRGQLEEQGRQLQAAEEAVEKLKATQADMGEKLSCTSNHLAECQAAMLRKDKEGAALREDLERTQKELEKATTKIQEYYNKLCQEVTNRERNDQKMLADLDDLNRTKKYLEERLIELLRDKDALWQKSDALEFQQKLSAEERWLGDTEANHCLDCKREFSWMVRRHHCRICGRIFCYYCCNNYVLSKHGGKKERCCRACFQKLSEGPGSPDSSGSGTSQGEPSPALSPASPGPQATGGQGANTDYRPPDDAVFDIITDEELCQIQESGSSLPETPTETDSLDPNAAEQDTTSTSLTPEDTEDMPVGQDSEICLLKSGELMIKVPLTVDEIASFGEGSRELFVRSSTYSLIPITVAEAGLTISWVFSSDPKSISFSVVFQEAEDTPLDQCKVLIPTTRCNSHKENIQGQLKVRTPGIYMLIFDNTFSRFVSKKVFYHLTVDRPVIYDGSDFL
UniProt Q14376: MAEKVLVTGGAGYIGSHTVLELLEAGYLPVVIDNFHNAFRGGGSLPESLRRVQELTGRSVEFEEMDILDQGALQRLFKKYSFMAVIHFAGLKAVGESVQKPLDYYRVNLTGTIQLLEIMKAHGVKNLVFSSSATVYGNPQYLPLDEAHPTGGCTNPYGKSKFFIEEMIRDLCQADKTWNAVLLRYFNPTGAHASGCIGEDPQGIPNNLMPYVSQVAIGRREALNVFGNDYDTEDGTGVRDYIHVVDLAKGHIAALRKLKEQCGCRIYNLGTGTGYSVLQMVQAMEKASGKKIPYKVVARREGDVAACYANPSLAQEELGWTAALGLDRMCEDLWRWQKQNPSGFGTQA
UniProt P15407: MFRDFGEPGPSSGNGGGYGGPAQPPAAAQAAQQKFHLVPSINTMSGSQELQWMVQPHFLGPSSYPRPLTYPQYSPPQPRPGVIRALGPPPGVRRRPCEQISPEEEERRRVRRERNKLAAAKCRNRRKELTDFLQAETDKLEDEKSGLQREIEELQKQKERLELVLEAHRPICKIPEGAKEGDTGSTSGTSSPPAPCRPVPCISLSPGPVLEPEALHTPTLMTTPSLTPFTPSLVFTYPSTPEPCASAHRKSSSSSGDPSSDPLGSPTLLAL
UniProt Q96RP9: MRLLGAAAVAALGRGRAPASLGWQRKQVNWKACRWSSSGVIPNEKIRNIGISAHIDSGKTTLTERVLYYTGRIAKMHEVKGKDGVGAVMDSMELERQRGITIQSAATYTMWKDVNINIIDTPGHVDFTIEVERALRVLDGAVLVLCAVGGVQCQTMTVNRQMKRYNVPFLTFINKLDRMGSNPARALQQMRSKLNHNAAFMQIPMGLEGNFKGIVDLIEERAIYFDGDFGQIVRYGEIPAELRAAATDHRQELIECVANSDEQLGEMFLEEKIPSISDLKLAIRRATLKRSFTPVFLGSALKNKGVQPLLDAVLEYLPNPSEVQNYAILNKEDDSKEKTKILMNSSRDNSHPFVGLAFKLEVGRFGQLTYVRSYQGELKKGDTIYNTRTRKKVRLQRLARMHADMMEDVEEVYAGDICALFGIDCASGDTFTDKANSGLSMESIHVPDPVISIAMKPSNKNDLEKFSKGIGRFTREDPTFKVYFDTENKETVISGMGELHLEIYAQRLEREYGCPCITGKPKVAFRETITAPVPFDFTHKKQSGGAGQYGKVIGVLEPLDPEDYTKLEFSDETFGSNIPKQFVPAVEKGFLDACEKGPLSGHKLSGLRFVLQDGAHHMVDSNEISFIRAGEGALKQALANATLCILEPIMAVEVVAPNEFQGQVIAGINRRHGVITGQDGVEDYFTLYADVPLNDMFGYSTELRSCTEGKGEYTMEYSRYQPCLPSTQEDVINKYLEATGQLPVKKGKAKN

log2 fold change, inactive:
GCN1 (UniProt Q92616) 0.255, FOXRED2 (UniProt Q8IWF2) 0.022, GDF15 (UniProt Q99988) -0.064, GARS1 (UniProt P41250) -0.007, GFM2 (UniProt Q969S9) 0.111, GGCX (UniProt P38435) 0.01, GARS1 (UniProt H7C443) 0.096, FTSJ1 (UniProt Q9UET6) 0.12, GCLC (UniProt P48506) 0.007, FSCN1 (UniProt Q16658) 0.008, FRYL (UniProt O94915) 0.036, GATC (UniProt O43716) 0.473, GADD45GIP1 (UniProt Q8TAE8) 0.068, GAR1 (UniProt Q9NY12) 0.083, GGT2 isoform 3 (UniProt P36268) 0.05, GEMIN4 (UniProt P57678) 0.137, GAGE5 (UniProt Q13069) 0.062, GALT (UniProt P07902) -0.049, GGACT (UniProt Q9BVM4) 0.149, GATA2 (UniProt P23769) 0.139, GALNS (UniProt P34059) 0.104, FRMD8 (UniProt Q9BZ67) 0.006, GATAD2A isoform 3 (UniProt Q86YP4) -0.015, GGA1 isoform 6 (UniProt Q9UJY5) -0.005, FYCO1 isoform 4 (UniProt Q9BQS8) -0.024, GALE (UniProt Q14376) -0.016, FOSL1 (UniProt P15407) -0.064, GAPDH (UniProt P04406) 0.024, FOXRED1 (UniProt Q96CU9) 0.068, GFM1 (UniProt Q96RP9) -0.022

Reference: the supplement of paper PMC10849652
